Measurements taken from PubChem BioAssay AID488837 (National Center for Advancing Translational Sciences (NCATS), 2010).
The campaign covered roughly 330,000 compounds. About 20 (0.006%) were called active. Inconclusive means that the source gave no clear call. Such entries were picked first, then a sample of the others. Calls follow the shape of the dose curve; as a rule, active = well fitted inhibition curve with a large enough effect; inconclusive = small, poorly fitted or top-dose-only effect, or effect the other way; inactive = flat fitted curve, though single readings scatter. Potencies of inconclusive entries are doubtful fits and often do not repeat.

Protein sequences, listed by entry. Tags and fused reporters are not part of them. Lines headed by an entry give the natural chain unless they say otherwise; changes in a name come on top.
UniProt O00167: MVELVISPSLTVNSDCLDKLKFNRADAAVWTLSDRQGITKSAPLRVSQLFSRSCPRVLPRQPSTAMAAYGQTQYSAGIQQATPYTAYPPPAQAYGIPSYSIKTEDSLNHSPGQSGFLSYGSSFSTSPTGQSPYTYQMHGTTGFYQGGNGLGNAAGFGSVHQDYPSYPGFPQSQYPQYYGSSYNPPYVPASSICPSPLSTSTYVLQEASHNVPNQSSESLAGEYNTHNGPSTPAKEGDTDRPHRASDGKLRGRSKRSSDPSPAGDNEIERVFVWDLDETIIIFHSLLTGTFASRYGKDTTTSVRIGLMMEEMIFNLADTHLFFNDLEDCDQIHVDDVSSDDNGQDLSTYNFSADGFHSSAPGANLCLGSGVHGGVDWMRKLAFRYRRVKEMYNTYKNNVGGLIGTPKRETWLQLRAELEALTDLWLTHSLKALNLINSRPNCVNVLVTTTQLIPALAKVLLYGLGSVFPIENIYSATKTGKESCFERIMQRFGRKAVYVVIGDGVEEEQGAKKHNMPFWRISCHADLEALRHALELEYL

Each compound was assayed against Protein phosphatase EYA2 (Homo sapiens) (UniProt O00167) (assay: qHTS Assay for Inhibitors of the Phosphatase Activity of Eya2). Settings: recombinant Eya2, OMFP fluorescence dephosphorylation (OMFP is methylfluorescein phosphate); activity, negative = inhibition: at 76.9 µM (top of the series) unless noted.
In short: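 Eya2 protein (added as 0.2 uM solution) was preincubated with compound for 10 min at ambient temperature in 50 mM HEPES pH 7.5, 50 mM NaCl, 5 uM MgCl2, 0.05% BSA, 1 mM DTT. OMFP (added at 50 uM) then reacted 10 min; fluorescence read at 485/525 nm.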
% is scaled to controls: 0 for no effect and ±100 for the full control effect; potency is read from the fitted curve at half-maximal effect.

| SMILES | Potency | activity, negative = inhibition |
| --- | --- | --- |
| CCOc1ccc(NC(=O)COc2ccc3c(c2)CCC3)cc1OC | inconclusive: 100 µM [inhibitor, single point] | – |
| Cc1noc(/C=C/N(C)C)c1S(=O)(=O)N1CCCC(C(=O)NC(C)c2ccccc2)C1 (stereo not drawn) | inconclusive: 20 µM [inhibitor, single point] | – |
| COC(=O)c1c(NC(=O)CC2Nc3ccccc3NC2=O)sc(C)c1C (stereo not drawn) | inconclusive: 112 µM [inhibitor, partial curve, poor fit] | – |
| C#CCOCCOCCOCCNc1nc(N2CCN(C(=O)CCCCCCCCCCNC(=O)Cn3cc(CCCCCN)nn3)CC2)nc(N2CCN(C(=O)CCCCCCCCCCNC(=O)Cn3cc(CCCCCN)nn3)CC2)n1 | inactive | – |
| CCC(C(=O)NC(C)(C)C)N(C(=O)Cn1nnc(-c2ccccc2F)n1)c1cccc2c1CCCC2 (stereo not drawn) | inconclusive: 100 µM [inhibitor, single point] | – |
| CC(=O)N=C1SC2CS(=O)(=O)CC2N1Cc1ccc(C)cc1 (stereo not drawn) | inconclusive: 200 µM [inhibitor, partial curve] | – |
| COc1ccc(S(=O)(=O)N(CC(=O)NC(C)C)Cc2ccccc2)cc1 | inactive | – |
| Cc1ccc(NC(=O)CCNC(=O)c2ccccc2)cc1F | inconclusive: 20 µM [inhibitor, single point] | – |
| Nc1cc(=O)[nH]c(SCC(=O)N2N=C(c3ccc4ccccc4c3)CC2c2ccccc2)n1 (stereo not drawn) | inconclusive: 631 µM [inhibitor, single point] | – |
| CC1(C)CC(=O)C(C=NCC2CCN(C(=S)Nc3cccc(Cl)c3)CC2)=C(O)C1 | inconclusive: 112 µM [inhibitor, single point] | – |
| Cc1ccc(/C=N/NC(=O)Cn2ccc(C(F)(F)F)n2)o1 | inconclusive: 35.5 µM [inhibitor, single point] | – |
| N#Cc1sc2nc(-c3ccccc3)cc(-c3ccco3)c2c1N | inactive | – |
| O=C(/C=C/c1ccccc1)OCCN1C(=O)c2ccccc2C1=O | – | inconclusive: -30.6% [inhibitor] |
| CN(C)C(=O)N1CCC(C(=O)NCC2CCCO2)CC1 (stereo not drawn) | – | inconclusive: -47.3% [inhibitor] |
| CC(C)NC(=O)CCc1nnc(Cc2cccc(C(F)(F)F)c2)o1 | inconclusive: 22.4 µM [inhibitor, single point] | – |
| COCCNC(=S)N1CCN(c2nc(-c3cccc(OC)c3)cs2)CC1 | inconclusive: 158 µM [inhibitor, partial curve, poor fit] | – |
| O=C(N/N=C/c1c(O)ccc2ccccc12)c1cccc(C(F)(F)F)c1 | inconclusive: 50.1 µM [activator, partial curve] | – |
| CCOC(=O)CN1C(=O)C(CC)Oc2ccccc21 (stereo not drawn) | inactive | – |
| CCc1n[nH]c(=S)n1N=C1CCC(C)CC1 (stereo not drawn) | inconclusive: 100 µM [inhibitor, single point] | – |
| CSc1nnc2c(n1)OC=Nc1ccc(Br)cc1-2 | inconclusive: 22.4 µM [inhibitor, single point] | – |
| O=C(CN1CCN(Cc2ccccc2)CC1)N1CCCc2ccccc21 | inconclusive: 22.4 µM [inhibitor, single point] | – |
| COc1cc2c(cc1OC)C(C)N(S(=O)(=O)c1cccs1)CC2 (stereo not drawn) | inconclusive: 25.1 µM [inhibitor, single point] | – |

Exported in CSV form: two of the compounds above
SMILES,Potency,"activity, negative = inhibition"
C#CCOCCOCCOCCNc1nc(N2CCN(C(=O)CCCCCCCCCCNC(=O)Cn3cc(CCCCCN)nn3)CC2)nc(N2CCN(C(=O)CCCCCCCCCCNC(=O)Cn3cc(CCCCCN)nn3)CC2)n1,inactive,–
CCC(C(=O)NC(C)(C)C)N(C(=O)Cn1nnc(-c2ccccc2F)n1)c1cccc2c1CCCC2 (stereo not drawn),"inconclusive: 100 µM [inhibitor, single point]",–

The list continues:

| SMILES | Potency | activity, negative = inhibition |
| --- | --- | --- |
| CC1(OC(=O)CCc2ccccc2)C(=O)C=C2C=C(c3ccc(C#N)cc3)N(CCN3CCOCC3)C=C2C1=O (stereo not drawn) | inactive | – |
| COc1ccc(OC)c(-c2cc(C(=O)Nc3c(C)nn(Cc4ccccc4Cl)c3C)no2)c1 | inactive | – |
| COc1cc(-c2nnc(SCC(=O)N3CCOCC3)o2)cc(OC)c1OC | – | inconclusive: -33.2% [inhibitor] |
| O=C(O)c1ccc(NC(=S)NC(=O)c2ccc3ccccc3c2)cc1 | inactive | – |
| COc1ccc(CCCC(=O)NC2CCCCC2)cc1 | inconclusive: 25.1 µM [inhibitor, single point] | – |
| Cc1cc(-c2csc(Nc3ccccn3)n2)ccc1F | inconclusive: 14.1 µM [inhibitor, single point] | – |
| N/C(=N\N=C/c1ccc(F)cc1)N/N=C\c1ccc(F)cc1 | inconclusive: 100 µM [inhibitor, single point] | – |
| CCSc1nc(C2CC2)cc(-c2cccs2)c1C#N | inconclusive: 14.1 µM [inhibitor, single point] | – |
| CCc1nc2sc3c(c2c(=O)n1CCO)CCC3 | inactive | – |
| CCCCC(CC)C1OCC(CN2CCCC2)O1 (stereo not drawn) | inconclusive: 31.6 µM [activator, partial curve, poor fit] | – |
| COc1ccc(-c2c3c(cc(C)[n+]2[O-])oc2ccc(OC)cc23)cc1 | inactive | – |
| O=C(/C=C/c1cccs1)c1cc(Cl)ccc1O | inconclusive: 89.1 µM [inhibitor, single point] | – |
| CCN1/C(=C/C(C)=C/c2sc3ccccc3[n+]2CC)Sc2ccccc21 | inconclusive: 501 µM [inhibitor, single point] | – |
| O=c1[nH]c(C2CCCN(S(=O)(=O)c3ccccc3)C2)nc2c1nnn2Cc1ccccc1 (stereo not drawn) | inconclusive: 112 µM [inhibitor, partial curve] | – |
| CCOc1ccc(NC(=O)C(C)NC(=O)c2ccccc2Cl)cc1S(=O)(=O)N1CCCC1 (stereo not drawn) | – | inconclusive: 39.7% [activator] |
| N#Cc1ccccc1OCC(=O)NCC1(N2CCCCC2)CCCCC1 | inconclusive: 39.8 µM [inhibitor, partial curve, poor fit] | – |
| Cc1ccc(-c2nn3nnnc3c3ccccc23)cc1 | inconclusive: 7.94 µM [activator, partial curve, poor fit] | – |
| CN1CCN(c2ccc(Cl)cc2NC(=O)/C=C/c2cccc(F)c2)CC1 | inconclusive: 708 µM [inhibitor, partial curve, poor fit] | – |
| COc1cc(NC(=O)c2ccc(-c3csc(C)n3)cc2)c(OC)cc1Cl | inconclusive: 22.4 µM [inhibitor, single point] | – |
| CSc1scc2c1-c1nc(SCC(=O)C(C)(C)C)ncc1CC2 | inconclusive: 100 µM [inhibitor, single point] | – |
| O=C(CSC1=NCCS1)N1CCN(c2ccccc2)CC1 | inactive | – |
